Results published in paper PMC12592336.
Results are given in words; binding and its absence hold for the method and conditions named. In cells and extracts the contact can be indirect.

Chains of the proteins cited; added tags and fusions are not shown. Lines headed by an entry give the natural chain unless they say otherwise; changes in a name come on top.
UniProt P60953: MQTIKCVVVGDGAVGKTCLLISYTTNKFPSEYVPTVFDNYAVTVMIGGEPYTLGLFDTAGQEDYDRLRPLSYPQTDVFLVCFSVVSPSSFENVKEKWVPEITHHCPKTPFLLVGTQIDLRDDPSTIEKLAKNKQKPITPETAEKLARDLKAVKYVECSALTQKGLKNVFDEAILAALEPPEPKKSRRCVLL

Columns and labels:
Assay in all cases: co-IP; anti-Flag beads on NP-40 lysates (50 mM Tris-HCl pH 8.0, 150 mM NaCl, 1% NP-40) of HepG2-NTCP CDC42-WT, CDC42-CA and CDC42-DN cells, 4 °C overnight; blots for NTCP and Rab11
[1] = target: Flag-tagged dominant-negative CDC42 (DN, T17D) (human) (UniProt P60953)
[2] = target: Flag-tagged constitutively active CDC42 (CA, G12V) (human) (UniProt P60953)
[3] = target: Flag-tagged wild-type CDC42 (human) (UniProt P60953)

Measured: binding

B1: sodium taurocholate co-transporting polypeptide (NTCP) (receptor, UniProt Q14973 1-349)
chain: MEAHNASAPFNFTLPPNFGKRPTDLALSVILVFMLFFIMLSLGCTMEFSKIKAHLWKPKGLAIALVAQYGIMPLTAFVLGKVFRLKNIEALAILVCGCSPGGNLSNVFSLAMKGDMNLSIVMTTCSTFCALGMMPLLLYIYSRGIYDGDLKDKVPYKGIVISLVLVLIPCTIGIVLKSKRPQYMRYVIKGGMIIILLCSVAVTVLSAINVGKSIMFAMTPLLIATSSLMPFIGFLLGYVLSALFCLNGRCRRTVSMETGCQNVQLCSTILNVAFPPEVIGPLFFFPLLYMIFQLGEGLLLIAIFWCYEKFKTPKDKTKMIYTAATTEETIPGALGNGTYKGEDCSPCTA
no binding: all assays above
